Measurements taken from the supplement of paper PMC10849652.
The other results are listed elsewhere or left out.

Sequences of proteins named here, by UniProt entry; tags and fusion partners are left off. A change or cut given only in a name is not applied to a line headed by its entry.
UniProt Q6NXT1: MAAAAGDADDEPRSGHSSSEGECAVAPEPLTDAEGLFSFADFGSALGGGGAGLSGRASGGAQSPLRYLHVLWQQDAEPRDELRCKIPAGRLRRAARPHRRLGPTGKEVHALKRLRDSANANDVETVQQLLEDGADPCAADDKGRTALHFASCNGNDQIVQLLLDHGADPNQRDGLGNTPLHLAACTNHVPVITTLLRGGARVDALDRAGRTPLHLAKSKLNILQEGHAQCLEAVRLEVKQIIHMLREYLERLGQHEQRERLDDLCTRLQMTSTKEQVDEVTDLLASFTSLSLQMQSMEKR
UniProt Q8IWW6: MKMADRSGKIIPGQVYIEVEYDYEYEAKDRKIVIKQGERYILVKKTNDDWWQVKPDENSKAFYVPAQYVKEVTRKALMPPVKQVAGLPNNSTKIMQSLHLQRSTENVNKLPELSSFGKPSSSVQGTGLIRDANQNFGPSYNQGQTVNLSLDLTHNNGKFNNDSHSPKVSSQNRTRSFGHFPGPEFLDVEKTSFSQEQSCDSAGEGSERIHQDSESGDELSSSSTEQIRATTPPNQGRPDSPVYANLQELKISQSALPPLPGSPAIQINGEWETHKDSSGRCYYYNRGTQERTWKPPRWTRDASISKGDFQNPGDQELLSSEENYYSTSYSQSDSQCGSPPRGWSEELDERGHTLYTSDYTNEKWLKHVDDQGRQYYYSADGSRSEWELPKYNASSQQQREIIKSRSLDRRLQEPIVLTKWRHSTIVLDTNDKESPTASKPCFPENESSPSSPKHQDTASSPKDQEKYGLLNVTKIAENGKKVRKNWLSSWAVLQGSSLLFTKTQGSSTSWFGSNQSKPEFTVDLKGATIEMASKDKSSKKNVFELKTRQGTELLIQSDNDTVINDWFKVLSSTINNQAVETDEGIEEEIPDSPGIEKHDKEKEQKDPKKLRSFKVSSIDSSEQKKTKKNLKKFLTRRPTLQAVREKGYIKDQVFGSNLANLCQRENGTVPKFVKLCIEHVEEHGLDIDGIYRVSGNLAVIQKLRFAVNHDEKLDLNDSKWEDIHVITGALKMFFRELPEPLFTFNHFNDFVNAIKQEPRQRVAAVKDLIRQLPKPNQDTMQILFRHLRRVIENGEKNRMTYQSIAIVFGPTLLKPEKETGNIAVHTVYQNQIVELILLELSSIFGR
UniProt Q9Y4X5: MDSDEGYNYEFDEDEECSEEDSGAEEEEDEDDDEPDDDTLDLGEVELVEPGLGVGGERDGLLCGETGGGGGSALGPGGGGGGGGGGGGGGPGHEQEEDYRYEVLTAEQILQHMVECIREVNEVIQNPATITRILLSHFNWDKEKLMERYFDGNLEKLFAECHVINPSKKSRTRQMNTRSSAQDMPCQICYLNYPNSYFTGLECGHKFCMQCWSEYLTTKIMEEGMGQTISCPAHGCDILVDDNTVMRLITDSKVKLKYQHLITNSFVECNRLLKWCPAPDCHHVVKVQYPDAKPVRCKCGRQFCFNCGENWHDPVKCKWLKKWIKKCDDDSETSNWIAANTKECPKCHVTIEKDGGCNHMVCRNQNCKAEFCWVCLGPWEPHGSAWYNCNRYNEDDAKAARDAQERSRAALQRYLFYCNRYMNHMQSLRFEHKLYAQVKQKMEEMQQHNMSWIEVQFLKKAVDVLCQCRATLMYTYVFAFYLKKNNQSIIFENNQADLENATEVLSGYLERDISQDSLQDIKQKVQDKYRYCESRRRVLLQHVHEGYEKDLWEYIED
UniProt P48444: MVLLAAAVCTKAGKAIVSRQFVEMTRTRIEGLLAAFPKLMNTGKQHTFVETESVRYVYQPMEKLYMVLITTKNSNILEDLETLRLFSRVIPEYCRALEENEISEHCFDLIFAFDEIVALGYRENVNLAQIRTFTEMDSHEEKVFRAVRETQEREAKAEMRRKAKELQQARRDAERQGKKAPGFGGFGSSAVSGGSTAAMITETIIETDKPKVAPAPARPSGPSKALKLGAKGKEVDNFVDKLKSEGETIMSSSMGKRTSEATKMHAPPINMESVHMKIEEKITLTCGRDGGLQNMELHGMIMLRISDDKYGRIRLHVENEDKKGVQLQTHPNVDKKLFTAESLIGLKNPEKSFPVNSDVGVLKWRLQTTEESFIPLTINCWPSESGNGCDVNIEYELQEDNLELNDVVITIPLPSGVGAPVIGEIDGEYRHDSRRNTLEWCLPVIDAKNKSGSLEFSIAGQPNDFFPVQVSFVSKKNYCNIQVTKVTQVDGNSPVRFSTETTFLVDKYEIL
UniProt Q9UJX6, whole entry, looked up: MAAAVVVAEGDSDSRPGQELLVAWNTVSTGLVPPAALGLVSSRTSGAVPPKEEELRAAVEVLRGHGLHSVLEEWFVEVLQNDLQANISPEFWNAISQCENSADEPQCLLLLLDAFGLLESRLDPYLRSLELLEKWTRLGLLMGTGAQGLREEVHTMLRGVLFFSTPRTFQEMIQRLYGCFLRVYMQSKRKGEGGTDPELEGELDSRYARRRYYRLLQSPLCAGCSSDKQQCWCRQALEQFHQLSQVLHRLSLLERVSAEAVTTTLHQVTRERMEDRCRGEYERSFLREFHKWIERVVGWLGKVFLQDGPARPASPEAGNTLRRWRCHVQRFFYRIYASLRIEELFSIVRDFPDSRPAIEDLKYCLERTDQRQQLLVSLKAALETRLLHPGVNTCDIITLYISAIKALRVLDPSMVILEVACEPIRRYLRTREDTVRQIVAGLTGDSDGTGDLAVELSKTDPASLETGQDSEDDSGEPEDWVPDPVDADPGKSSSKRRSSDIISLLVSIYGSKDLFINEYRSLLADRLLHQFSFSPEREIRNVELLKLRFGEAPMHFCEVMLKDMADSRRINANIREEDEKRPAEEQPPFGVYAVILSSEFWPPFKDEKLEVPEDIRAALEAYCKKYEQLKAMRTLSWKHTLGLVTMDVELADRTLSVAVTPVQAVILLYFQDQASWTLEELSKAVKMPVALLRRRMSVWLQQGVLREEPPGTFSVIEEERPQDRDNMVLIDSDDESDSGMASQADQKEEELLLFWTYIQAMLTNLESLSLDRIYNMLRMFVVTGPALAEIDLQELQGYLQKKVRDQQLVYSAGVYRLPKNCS
UniProt O43299: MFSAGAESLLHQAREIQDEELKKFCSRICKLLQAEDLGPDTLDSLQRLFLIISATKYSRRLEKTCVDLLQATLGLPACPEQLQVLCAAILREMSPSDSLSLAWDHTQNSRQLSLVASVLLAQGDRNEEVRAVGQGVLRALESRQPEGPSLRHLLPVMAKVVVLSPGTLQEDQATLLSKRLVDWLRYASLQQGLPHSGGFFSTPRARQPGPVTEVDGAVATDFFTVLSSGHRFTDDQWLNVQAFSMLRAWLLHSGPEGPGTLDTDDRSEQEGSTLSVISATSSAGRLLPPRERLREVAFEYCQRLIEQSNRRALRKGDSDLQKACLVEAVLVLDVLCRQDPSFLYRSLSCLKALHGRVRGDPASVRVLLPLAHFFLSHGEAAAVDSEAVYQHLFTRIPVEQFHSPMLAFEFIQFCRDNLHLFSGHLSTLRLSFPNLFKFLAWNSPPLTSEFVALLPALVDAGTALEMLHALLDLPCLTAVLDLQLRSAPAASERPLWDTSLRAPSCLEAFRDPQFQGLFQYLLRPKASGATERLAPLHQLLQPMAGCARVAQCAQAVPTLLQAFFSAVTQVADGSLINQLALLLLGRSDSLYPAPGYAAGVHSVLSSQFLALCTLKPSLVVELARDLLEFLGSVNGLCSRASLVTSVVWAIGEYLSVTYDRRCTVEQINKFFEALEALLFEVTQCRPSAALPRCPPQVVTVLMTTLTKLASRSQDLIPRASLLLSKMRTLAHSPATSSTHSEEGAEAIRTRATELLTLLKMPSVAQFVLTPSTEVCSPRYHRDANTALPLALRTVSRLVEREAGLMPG
UniProt Q07960: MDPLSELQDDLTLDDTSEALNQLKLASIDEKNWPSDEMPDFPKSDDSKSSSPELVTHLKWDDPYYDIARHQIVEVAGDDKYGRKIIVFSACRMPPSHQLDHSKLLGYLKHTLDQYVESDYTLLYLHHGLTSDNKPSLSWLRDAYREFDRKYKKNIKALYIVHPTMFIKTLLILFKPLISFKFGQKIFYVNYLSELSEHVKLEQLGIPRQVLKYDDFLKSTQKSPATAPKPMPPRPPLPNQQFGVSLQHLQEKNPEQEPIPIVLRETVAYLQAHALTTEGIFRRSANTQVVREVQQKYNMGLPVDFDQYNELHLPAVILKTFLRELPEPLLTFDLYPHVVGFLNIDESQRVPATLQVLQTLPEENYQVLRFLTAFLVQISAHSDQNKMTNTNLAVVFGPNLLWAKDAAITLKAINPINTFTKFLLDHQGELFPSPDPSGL
UniProt Q9NP61: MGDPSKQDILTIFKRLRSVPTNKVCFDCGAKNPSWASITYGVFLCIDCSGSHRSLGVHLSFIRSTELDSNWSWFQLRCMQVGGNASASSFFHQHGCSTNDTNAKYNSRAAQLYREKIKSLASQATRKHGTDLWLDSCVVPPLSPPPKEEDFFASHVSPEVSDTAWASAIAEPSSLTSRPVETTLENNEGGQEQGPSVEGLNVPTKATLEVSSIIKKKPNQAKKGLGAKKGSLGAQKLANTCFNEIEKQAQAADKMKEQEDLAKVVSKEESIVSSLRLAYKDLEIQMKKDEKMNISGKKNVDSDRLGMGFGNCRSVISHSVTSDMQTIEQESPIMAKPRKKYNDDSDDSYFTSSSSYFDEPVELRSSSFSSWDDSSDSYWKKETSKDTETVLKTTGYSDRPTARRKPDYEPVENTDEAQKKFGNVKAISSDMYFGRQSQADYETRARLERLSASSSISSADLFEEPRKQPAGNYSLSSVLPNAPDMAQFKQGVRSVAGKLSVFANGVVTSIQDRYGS
UniProt P78540: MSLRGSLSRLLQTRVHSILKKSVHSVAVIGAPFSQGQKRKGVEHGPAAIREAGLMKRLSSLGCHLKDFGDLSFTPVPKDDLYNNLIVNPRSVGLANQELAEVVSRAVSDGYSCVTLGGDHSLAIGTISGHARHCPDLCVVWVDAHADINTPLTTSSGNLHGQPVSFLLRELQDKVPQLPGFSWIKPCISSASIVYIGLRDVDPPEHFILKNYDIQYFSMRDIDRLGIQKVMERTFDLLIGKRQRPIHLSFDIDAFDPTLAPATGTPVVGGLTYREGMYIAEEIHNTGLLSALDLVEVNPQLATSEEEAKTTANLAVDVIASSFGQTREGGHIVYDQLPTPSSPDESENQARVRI
UniProt Q63HQ0: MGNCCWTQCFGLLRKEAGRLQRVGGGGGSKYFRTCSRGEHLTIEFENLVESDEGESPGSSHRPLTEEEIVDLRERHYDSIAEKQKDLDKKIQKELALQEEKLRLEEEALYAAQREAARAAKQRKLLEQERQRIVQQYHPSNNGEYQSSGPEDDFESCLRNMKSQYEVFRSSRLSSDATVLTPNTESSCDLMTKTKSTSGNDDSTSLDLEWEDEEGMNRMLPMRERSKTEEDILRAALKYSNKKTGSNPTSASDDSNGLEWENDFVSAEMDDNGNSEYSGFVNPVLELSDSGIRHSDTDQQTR
UniProt Q8N6H7: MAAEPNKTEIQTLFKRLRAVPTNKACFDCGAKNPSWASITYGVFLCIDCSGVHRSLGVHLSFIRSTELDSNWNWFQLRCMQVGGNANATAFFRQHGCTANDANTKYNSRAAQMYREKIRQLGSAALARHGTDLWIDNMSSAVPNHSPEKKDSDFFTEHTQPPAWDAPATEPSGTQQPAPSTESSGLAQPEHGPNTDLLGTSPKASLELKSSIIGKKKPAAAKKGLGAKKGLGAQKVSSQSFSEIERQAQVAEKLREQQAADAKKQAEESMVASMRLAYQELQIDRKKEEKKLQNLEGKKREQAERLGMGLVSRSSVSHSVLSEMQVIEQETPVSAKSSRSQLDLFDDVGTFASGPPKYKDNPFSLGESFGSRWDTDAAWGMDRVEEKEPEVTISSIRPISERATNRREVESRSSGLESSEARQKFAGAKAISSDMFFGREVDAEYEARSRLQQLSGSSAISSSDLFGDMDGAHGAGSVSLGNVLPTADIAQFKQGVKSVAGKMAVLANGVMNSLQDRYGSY
UniProt Q92688: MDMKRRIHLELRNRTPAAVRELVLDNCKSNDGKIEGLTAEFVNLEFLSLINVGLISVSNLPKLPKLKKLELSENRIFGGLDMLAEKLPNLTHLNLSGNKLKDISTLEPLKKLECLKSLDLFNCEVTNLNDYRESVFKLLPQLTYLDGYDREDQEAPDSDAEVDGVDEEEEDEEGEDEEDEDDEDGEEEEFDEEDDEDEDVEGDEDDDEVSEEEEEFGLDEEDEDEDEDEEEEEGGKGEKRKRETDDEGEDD
UniProt Q96GX9: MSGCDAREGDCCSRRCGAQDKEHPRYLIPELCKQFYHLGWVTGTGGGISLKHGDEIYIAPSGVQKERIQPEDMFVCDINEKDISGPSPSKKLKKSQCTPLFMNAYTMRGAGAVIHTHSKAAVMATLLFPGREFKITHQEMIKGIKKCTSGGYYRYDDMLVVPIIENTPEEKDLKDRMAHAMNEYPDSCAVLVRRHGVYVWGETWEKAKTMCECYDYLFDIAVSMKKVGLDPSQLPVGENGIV

Key:
Experiment in all cases: log2 fold change, soluble protein after heating vs DMSO (PISA); higher = thermal stabilisation; K562 cells, 10 uM, 30 min; active = over 0.2 and 3.5 SD of the protein, either way, in both replicates (recomputed)
[1] = compound: NC(=O)Nc1cc(-c2cccc(F)c2)sc1C(=O)N[C@H]1CCCNC1
Summary of the method: (§1)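 K562 cells (2×10^6 cells/mL) were treated with 10 μM compound for 30 min, and aliquots were heated for 3 min over 48°C-58°C. Pooled aliquots were extracted in PBS with 0.5% NP-40 at 4°C, and the supernatant after 21,000xg for 90 min was measured by TMTpro 16plex LC-MS/MS with channel sums equalised. Reported thermal stability, relative to control samples and from duplicates, is a log2 fold change.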

[2] = compound: NC(=O)c1cnc(N[C@@H]2CCCC[C@@H]2N)nc1Nc1cccc(-n2nccn2)c1
Summary of the method: as §1

[3] = compound: NC1(c2ccc(-c3nc4ccn5c(=O)[nH]nc5c4cc3-c3ccccc3)cc2)CCC1
Summary of the method: as §1

[4] = compound: NCC(=O)Nc1ccc(-n2nc(C(F)(F)F)cc2-c2ccc3c(ccc4ccccc43)c2)cc1
Summary of the method: as §1

entinostat = compound: Nc1ccccc1NC(=O)c1ccc(CNC(=O)OCc2cccnc2)cc1 [entinostat]
Summary of the method: as §1

vorinostat = compound: O=C(CCCCCCC(=O)Nc1ccccc1)NO [vorinostat]
Summary of the method: as §1

citarinostat = compound: O=C(CCCCCCNC(=O)c1cnc(N(c2ccccc2)c2ccccc2Cl)nc1)NO [citarinostat]
Summary of the method: as §1

silmitasertib = compound: O=C(O)c1ccc2c(c1)nc(Nc1cccc(Cl)c1)c1ccncc12 [silmitasertib]
Summary of the method: as §1

[5] = compound: O=C1NC(=O)C(c2cnc3ccccn23)=C1c1cn2c3c(cc(F)cc13)CN(C(=O)N1CCCCC1)CC2
Summary of the method: as §1

[6] = compound: c1cc(OCCN2CCCCC2)cc(-c2n[nH]c3ccc(-c4nnc[nH]4)cc23)c1
Summary of the method: as §1

Target | log2 fold change [1] | log2 fold change [2] | log2 fold change [3] | log2 fold change [4] | log2 fold change (entinostat) | log2 fold change (vorinostat) | log2 fold change (citarinostat) | log2 fold change (silmitasertib) | log2 fold change [5] | log2 fold change [6]
ANKRD54 (UniProt Q6NXT1) | inactive: 0.035 | inactive: -0.011 | inactive: -0.044 | inactive: 0.149 | inactive: -0.012 | inactive: 0.041 | inactive: 0.045 | inactive: 0.075 | inactive: -0.053 | inactive: -0.032
AP2M1 (UniProt Q96CW1) | active: -0.293 | inactive: 0.004 | inactive: 0.012 | inactive: -0.003 | inactive: -0.007 | inactive: 0.06 | inactive: -0.004 | inactive: 0.029 | active: -0.237 | inactive: -0.209
ARHGAP12 (UniProt Q8IWW6) | inactive: 0.052 | inactive: -0.059 | inactive: -0.041 | inactive: 0.085 | inactive: -0.092 | inactive: 0.095 | inactive: 0.046 | inactive: 0.022 | inactive: -0.088 | inactive: 0.016
ARHGAP18 (UniProt Q8N392) | inactive: -0.137 | inactive: -0.141 | inactive: -0.144 | inactive: -0.155 | inactive: 0.131 | inactive: 0.035 | inactive: 0.053 | inactive: 0.115 | inactive: 0.059 | inactive: -0.078
ARIH1 (UniProt Q9Y4X5) | inactive: -0.02 | inactive: -0.037 | inactive: -0.024 | inactive: 0.015 | inactive: -0.02 | inactive: -0.017 | inactive: 0.012 | inactive: 0.005 | inactive: -0.062 | inactive: -0.015
APOE (UniProt P02649) | inactive: 0.01 | inactive: 0.041 | inactive: 0.018 | inactive: 0.026 | inactive: -0.06 | inactive: 0.021 | inactive: 0.011 | inactive: -0.028 | inactive: 0.043 | inactive: 0.039
ARCN1 (UniProt P48444) | inactive: -0.009 | inactive: -0.028 | inactive: -0.05 | inactive: 0.035 | inactive: 0.03 | inactive: 0.003 | inactive: 0.094 | inactive: 0.016 | inactive: -0.028 | inactive: 0.011
AP3D1 isoform 5 (UniProt O14617) | inactive: -0.011 | inactive: -0.013 | inactive: -0.076 | inactive: 0.013 | inactive: 0.021 | inactive: 0.022 | inactive: 0.054 | inactive: 0.022 | inactive: -0.003 | inactive: -0.019
ANKRD29 (UniProt Q8N6D5) | inactive: -0.044 | inactive: -0.181 | inactive: -0.337 | inactive: -0.119 | inactive: -0.03 | inactive: 0.061 | inactive: -0.002 | inactive: 0.039 | inactive: -0.2 | inactive: -0.051
ANAPC2 (UniProt Q9UJX6) | inactive: 0.079 | inactive: -0.025 | inactive: -0.063 | inactive: -0.023 | inactive: 0.02 | inactive: 0.074 | inactive: 0.124 | inactive: 0.087 | inactive: 0.027 | inactive: -0.049
ANP32A (UniProt P39687) | inactive: -0.029 | inactive: -0.013 | inactive: 0.032 | inactive: 0.052 | inactive: 0.02 | inactive: 0.043 | inactive: 0.097 | inactive: -0.005 | inactive: 0.088 | inactive: -0.018
ANXA2 isoform 2 (UniProt P07355) | inactive: 0.044 | inactive: 0.011 | inactive: -0.04 | inactive: -0.007 | inactive: 0.041 | inactive: 0 | inactive: 0.062 | inactive: -0.046 | inactive: -0.016 | inactive: 0.108
ANXA11 (UniProt P50995) | inactive: -0.01 | inactive: -0.028 | inactive: -0.096 | inactive: -0.052 | inactive: 0.05 | inactive: -0.027 | inactive: 0.056 | inactive: -0.001 | inactive: -0.055 | inactive: 0.019
ARFGEF1 (UniProt Q9Y6D6) | inactive: 0.028 | inactive: 0.121 | inactive: -0.023 | inactive: 0.006 | inactive: -0.044 | inactive: 0.02 | inactive: 0.009 | inactive: 0.065 | inactive: 0.023 | inactive: 0.069
ANKFY1 isoform 4 (UniProt Q9P2R3) | inactive: 0.051 | inactive: -0.095 | inactive: -0.006 | inactive: 0.006 | inactive: 0.082 | inactive: 0.374 | inactive: 0.008 | inactive: 0.058 | inactive: 0.258 | inactive: -0.197
ANXA5 (UniProt P08758) | inactive: -0.021 | inactive: -0.044 | inactive: -0.139 | inactive: -0.031 | inactive: 0.055 | inactive: 0.027 | inactive: 0.115 | inactive: 0 | inactive: -0.045 | inactive: -0.008
AP5Z1 (UniProt O43299) | inactive: -0.067 | inactive: -0.131 | inactive: -0.011 | inactive: -0.037 | inactive: -0.081 | inactive: 0.099 | inactive: -0.175 | inactive: -0.031 | inactive: 0.224 | inactive: -0.108
ARHGAP1 (UniProt Q07960) | inactive: -0.068 | inactive: -0.048 | inactive: -0.003 | inactive: -0.051 | inactive: 0.016 | inactive: 0.012 | inactive: 0.009 | inactive: 0.014 | inactive: -0.024 | inactive: -0.093
ARFGAP3 (UniProt Q9NP61) | inactive: -0.003 | inactive: -0.021 | inactive: -0.013 | inactive: -0.017 | inactive: -0.004 | inactive: 0.025 | inactive: 0.041 | inactive: 0.023 | inactive: -0.101 | inactive: 0.015
ANKHD1 isoform 6 (UniProt Q8IWZ3) | inactive: 0.074 | inactive: -0.023 | inactive: 0.042 | inactive: -0.021 | inactive: 0.066 | inactive: 0 | inactive: 0.016 | inactive: 0.119 | inactive: 0.234 | inactive: -0.087
ARG2 (UniProt P78540) | inactive: 0.055 | inactive: -0.045 | inactive: -0.11 | inactive: 0.01 | inactive: -0.065 | inactive: -0.022 | inactive: 0.016 | inactive: -0.017 | inactive: -0.004 | inactive: -0.037
AP1AR (UniProt Q63HQ0) | inactive: -0.038 | inactive: 0 | inactive: 0.241 | inactive: 0.045 | inactive: -0.068 | inactive: -0.049 | inactive: 0.091 | inactive: 0.015 | inactive: -0.005 | inactive: 0.06
ARFGAP2 (UniProt Q8N6H7) | inactive: -0.007 | inactive: -0.097 | inactive: -0.08 | inactive: -0.014 | inactive: 0.037 | inactive: -0.017 | inactive: 0.015 | inactive: 0.017 | inactive: -0.016 | inactive: -0.035
AP2A1 (UniProt O95782) | active: -0.38 | inactive: 0.061 | inactive: 0.041 | inactive: 0.026 | inactive: -0.002 | inactive: 0.038 | inactive: 0.005 | inactive: 0.047 | active: -0.275 | active: -0.227
ANAPC5 (UniProt Q9UJX4) | inactive: 0.006 | inactive: 0.012 | inactive: -0.03 | inactive: 0.014 | inactive: -0.001 | inactive: 0.024 | inactive: 0.02 | inactive: 0.016 | inactive: 0.005 | inactive: -0.047
ANP32B (UniProt Q92688) | inactive: -0.123 | inactive: -0.047 | inactive: -0.01 | inactive: -0.047 | inactive: -0.041 | inactive: 0.002 | inactive: 0.026 | inactive: -0.03 | inactive: -0.157 | inactive: -0.005
APIP (UniProt Q96GX9) | inactive: -0.027 | inactive: -0.005 | inactive: 0.003 | inactive: 0.028 | inactive: -0.017 | inactive: -0.025 | inactive: 0.031 | inactive: 0.032 | inactive: -0.015 | inactive: -0.026

Exported comma-delimited: part of the list above.
Target,log2 fold change [1],log2 fold change [2],log2 fold change [3],log2 fold change [4],log2 fold change (entinostat),log2 fold change (vorinostat),log2 fold change (citarinostat),log2 fold change (silmitasertib),log2 fold change [5],log2 fold change [6]
ANXA2 isoform 2 (UniProt P07355),inactive: 0.044,inactive: 0.011,inactive: -0.04,inactive: -0.007,inactive: 0.041,inactive: 0,inactive: 0.062,inactive: -0.046,inactive: -0.016,inactive: 0.108
ANXA11 (UniProt P50995),inactive: -0.01,inactive: -0.028,inactive: -0.096,inactive: -0.052,inactive: 0.05,inactive: -0.027,inactive: 0.056,inactive: -0.001,inactive: -0.055,inactive: 0.019
